# Earlier results in patent US5185436A, “Esters of normal butyric acid and their use as pharmaceuticals” (priority 1990, dated 1993).
# Like-named read-outs stand apart in the source and are kept apart here. The name of at least one read-out is uncertain.
# Details: rabbit, i.v. 0.12 g/kg, read-out: n-butyric acid present in serum, cited from earlier work
Compound,concentration (t=2 min),concentration (t=5 min),concentration (t=30 min),concentration (t=18 min)
CCCC(=O)O [arginine n-butyrate],1360 µM,230 µM,60 µM,
CCCC(=O)[O-].[Na+] [sodium n-butyrate],1660 µM,870 µM,20 µM,30 µM
